No constants are given. Whether binding was seen depends on the method and setting. Binding seen in cells or lysates may run through a third protein. Some results given as binding are weak or reduced against the parent protein; the word gives no strength.
Biological target: T1, YTHDF2 (human (endogenous in HeLa)) (UniProt Q9Y5A9)
T1 sequence: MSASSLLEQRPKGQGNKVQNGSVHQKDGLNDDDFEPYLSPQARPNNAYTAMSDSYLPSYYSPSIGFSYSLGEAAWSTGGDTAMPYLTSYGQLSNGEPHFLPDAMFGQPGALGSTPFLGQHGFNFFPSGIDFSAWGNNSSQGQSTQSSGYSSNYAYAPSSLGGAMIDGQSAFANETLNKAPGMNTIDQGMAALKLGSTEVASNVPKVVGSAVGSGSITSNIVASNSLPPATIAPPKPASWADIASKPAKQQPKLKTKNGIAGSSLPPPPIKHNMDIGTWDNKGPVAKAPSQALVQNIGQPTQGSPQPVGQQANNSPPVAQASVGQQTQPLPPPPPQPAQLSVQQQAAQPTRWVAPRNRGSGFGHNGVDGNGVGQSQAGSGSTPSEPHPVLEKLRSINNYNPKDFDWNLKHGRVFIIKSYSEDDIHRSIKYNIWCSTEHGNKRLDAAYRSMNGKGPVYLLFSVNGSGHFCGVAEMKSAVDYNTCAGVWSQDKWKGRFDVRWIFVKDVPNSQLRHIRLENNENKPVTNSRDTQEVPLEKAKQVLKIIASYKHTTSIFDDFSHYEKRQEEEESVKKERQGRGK
Experiment: co-IP; HeLa cells infected with CVB3 at MOI 10 for 3 h; lysis buffer 25 mM Tris HCl, 150 mM NaCl, 1 mM EDTA, 1% NP40, 5% glycerol, pH 7.4; precleared lysate precipitated overnight with anti-YTHDF2 on agarose beads and blotted for HuR, and conversely with anti-HuR and blotted for YTHDF2; IgG as control

Chains of the proteins cited; added tags and fusions are not shown.
UniProt Q15717: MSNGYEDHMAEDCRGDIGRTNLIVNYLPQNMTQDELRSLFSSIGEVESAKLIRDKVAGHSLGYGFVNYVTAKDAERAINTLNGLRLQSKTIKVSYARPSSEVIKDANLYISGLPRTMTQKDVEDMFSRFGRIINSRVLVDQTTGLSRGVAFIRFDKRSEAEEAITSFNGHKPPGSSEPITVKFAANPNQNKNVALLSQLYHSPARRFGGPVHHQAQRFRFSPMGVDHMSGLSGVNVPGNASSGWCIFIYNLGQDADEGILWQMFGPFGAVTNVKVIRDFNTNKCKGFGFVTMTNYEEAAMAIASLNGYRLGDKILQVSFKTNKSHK

Substance: human antigen R (HuR) (from UniProt Q15717 1-326)
- binding: binds

From paper PMC11596310
